This test has as its target T1, CD39 mutant 9 (human) (UniProt P49961).
T1 sequence: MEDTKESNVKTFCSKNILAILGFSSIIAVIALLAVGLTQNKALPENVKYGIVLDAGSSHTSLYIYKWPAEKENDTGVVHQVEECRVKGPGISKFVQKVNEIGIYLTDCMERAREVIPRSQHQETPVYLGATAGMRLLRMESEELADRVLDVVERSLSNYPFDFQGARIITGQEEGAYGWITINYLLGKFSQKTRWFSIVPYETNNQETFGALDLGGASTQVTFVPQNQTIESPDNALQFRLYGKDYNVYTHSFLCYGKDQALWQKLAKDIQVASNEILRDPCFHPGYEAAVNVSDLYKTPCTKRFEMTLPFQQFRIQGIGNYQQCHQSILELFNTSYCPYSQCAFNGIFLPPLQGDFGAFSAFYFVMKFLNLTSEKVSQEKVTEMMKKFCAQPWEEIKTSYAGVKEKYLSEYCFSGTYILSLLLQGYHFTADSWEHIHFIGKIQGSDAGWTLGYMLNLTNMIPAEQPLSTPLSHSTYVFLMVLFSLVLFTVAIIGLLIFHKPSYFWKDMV
The test can be described thus: flow cytometry on transfected Hek-293T cells. Background: Flow cytometry measures light scatter and fluorescence of single cells or particles in a stream.

No constants are given. Whether binding was seen depends on the method and setting. Some binding calls cover weakened binding; strength is not graded here.

B1: antibody I-399 (antibody, V domains shown)
VH: PVQLQQPGAEVVMPGASVKLSCKASGYTFTSFWMNWMRQRPGQGLEWIGEIDPSDFYTNSNQRFKGKATLTVDKSSSTAYMQLSSLTSEDSAVYFCARGDFGWYFDVWGTGTSVTVSS
VL: EIVLTQSPTTMTSSPGEKITFTCSASSSINSNYLHWYQQKPGFSPKLLIYRTSNLASGVPTRFSGSGSGTSYSLTIGTMEAEDVATYYCQQGSSLPRTFGGGTKLEIK
Consider B1, for which the binding result is “binds”.

For the origin of these results see patent publication US20190218304A1, “POTENTIATING THE EFFECT OF ATP RELEASE” (INNATE PHARMA, priority 2017, published 2019).
